The nature of the series: general procedure: solution-phase peptide synthesis; p-nitrophenyl active esters with TEA in DMF. The following applies: coupling step.

As to “BENZYLOXYCARBONYL-L-PYROGLUTAMYL-(γ-BENZYL)-L-GLUTAMYL-(β-BENZYL)-L-ASPARTYL-(S-p-METHOXYBENZYL)-L-CYSTEINYL-(ε-BENZYL-OXYCARBONYL)-L-LYSINE BENZYLESTER”, the step yield turned out to be 96%.
Under “t-Boc-(γ-BENZYL)-L-GLUTAMYL-(β-BENZYL)-L-ASPARTYL-(S-p-METHOXYBENZYL)-L-CYSTEINYL-(ε-BENZYLOXYCARBONYL)-L-LYSINE BENZYLESTER” stands 100%.

The values above are taken from patent publication US4499081A (Nyegaard & Co A/S, priority 1982, dated 1985).
